Results: the supplement of paper PMC8497498
± gives the standard deviation of the averaged measurements. The list shows a part of the results. The data scatter; read single values as rough.

Legend:
Conditions in all cases: 10 µM
[1] = system: Plasmodium vivax liver stage (primary human hepatocyte culture); experiment: hypnozoite quantity inhibition (% inhibition); higher = more active against hypnozoites
[2] = system: Plasmodium vivax liver stage (primary human hepatocyte culture); experiment: schizont net growth area inhibition (% inhibition); higher = more active against liver schizonts
[3] = system: primary human hepatocytes; experiment: hepatic nuclei reduction relative to DMSO (100 - % of negative control); higher = more toxic to hepatocytes
[4] = assay mode: Prophylactic (treated before or shortly after infection), fixed day 6 post-infection
[5] = assay mode: Radical Cure (treated from day 5 post-infection for 3 days), fixed day 8 post-infection

Compound	hypnozoite quantity inhibition [1, 4]	hypnozoite quantity inhibition [1, 5]	schizont net growth area inhibition [2, 4]	schizont net growth area inhibition [2, 5]	hepatic nuclei reduction [3, 4] [%]	hepatic nuclei reduction [3, 5] [%]
Nc1cccnc1Nc1ccc(Cl)cc1	-17	16	-12.9	-4.6	12	-7
CS(=O)(=O)c1cccc(-c2cnc3[nH]cc(-c4ccc(CCC(=O)O)cc4)c3c2)c1	94	6	102	111	-9	-9
O=C([C@@H](c1ccc(Cl)cc1)c1cccnc1)N1CCN(c2ccc(C(F)(F)F)cc2)CC1	-51	-10	-26.9	-11.7	-5	-6
CC(C)(C)c1cc(C(=O)N2CCN(c3nccnc3C#N)CC2)n(Cc2ccccc2)n1	27	-25	26.4	-187	7	3
COc1ccccc1C(C)NCC(=O)Nc1cc(C(F)(F)F)ccc1Cl (centres undefined)	-45	-65	6.2	-70.6	-10	-2
CCNCc1cc(Nc2ccnc3cc(Cl)ccc23)ccc1O	-46	18	90.4	30.5	-1	-5
O=C(C(Cc1c[nH]c2ccccc12)NS(=O)(=O)c1ccc(Cl)cc1)N1CCCCC1 (centres undefined)	28	-46	16.6	-41.1	13	5
CCOc1ccc(C=Cc2nc(=O)c3ccccc3o2)cc1	16.5	15.3	53.9	42.9	-18	11
COc1ccc2c(c1)OC(O)(C(F)(F)C(F)(F)F)CC2=O (centres undefined)	32.9	-6.2	32.1	-67.4	-5	-8
COc1cc2c(cc1OC)C1=NNC(=O)C1=NC(C)(C)C2	-24	31.9	-25.8	-49.1	2	-2
NCC(c1cccs1)S(=O)(=O)c1ccccc1 (centres undefined)	12	-5	-45.5	-32.3	-9	6
CCC(C)NC(=O)c1ccc(NC(=O)C2(c3ccccc3)CCCC2)cc1 (centres undefined)	0	-15	-6.2	36.7	-1	6
O=C(Nc1ccc(-c2nc3cc4ccccc4cc3[nH]2)cc1)c1cccc(Br)c1	-5	29	21.6	-4.9	7	-4
CCc1c(C)nc(-n2nc(C)cc2NC(=O)c2ccccc2SC)[nH]c1=O	21	6	0.9	-14	10	2
COc1ccc(-c2cc(=O)oc3c4c(ccc23)OCN(Cc2ccc(F)cc2)C4)cc1	10.1	-3.5	-6.4	19	0	-7
COc1cccc(-n2nnnc2S(C)(=O)=O)c1	-3	12	-5.5	22.3	-8	0
Cc1nn2c(O)c3c(nc2c1-c1ccc(F)cc1)CCCC3	32	-4	20.9	-93.2	-6	-13
COc1cccc(OC)c1C(=O)Nc1ccc(Cl)c(-c2nc3ccccc3s2)c1	-83	7	-18.9	37.5	-12	-2
CCCc1ccc(S(=O)(=O)Nc2ccc(CN3CCN(CC4CC4)CC3)cc2)cc1	-54	3	-2	-66.7	-11	-4
Nc1ccc(-c2nc3cc(Cc4ccc5[nH]c(-c6ccc(N)cc6)nc5c4)ccc3[nH]2)cc1	35.4	-38.9	84.2	33.2	15	-6

Compound	hypnozoite quantity inhibition [1, 4]	hypnozoite quantity inhibition [1, 5]	schizont net growth area inhibition [2, 4]	schizont net growth area inhibition [2, 5]	hepatic nuclei reduction [3, 4] [%]	hepatic nuclei reduction [3, 5] [%]
Cc1ccc(NC(=O)Nc2cccc(Cl)c2)cc1F	-25.1	38.2	33.5	36	-11	-4
O=C(c1[nH]nc2c1CCCC2)N1CCN(Cc2ccc3c(c2)OCO3)CC1	-57	-4	24.8	-215	-6	-1
CC(C)(C)NCc1cc(Nc2ccnc3cc(Cl)ccc23)c2c(c1O)CCCC2	-31	20	-108	-12.2	1	-5
CCOc1ccccc1C(=O)Nc1cccc(-c2nc3ncccn3c2C)c1	-45	7	39.8	28.8	-2	-8
CC(=O)c1sc(NC(=O)Nc2ccc(C)cc2C)nc1C	-30.3	-7.6	17.4	16.8	-11	-3
Clc1ccc2c(N3CCN(CCCN4CCN(c5ccnc6cc(Cl)ccc56)CC4)CC3)ccnc2c1	-5	10	-93	7.6	-8	-2
CCOC(=O)c1cnc2ccc(Cl)cc2c1NCCCN(C)C	6.1	38.2	-31	41.5	-1	8
C[C@H]1c2cccc(O)c2C(=O)C2=C(O)[C@]3(O)C(=O)C(C(N)=O)=C(O)[C@@H](N(C)C)C3[C@@H](O)C21 (some centres undefined)	-16 ± 37	8.1 ± 33	46.2 ± 12	27.5 ± 35	-0.5 ± 12	-0.333 ± 4
FC(F)(F)c1cccc(-c2nc3c(NCc4ccncc4)nccc3[nH]2)c1	13	-7	15.7	-51.3	-13	-4
Cc1ccc(-c2nc(CN(Cc3ccccn3)C(C)C)cs2)o1	24	-4	9.3	-125	-13	9
COc1ccc(C2(C(=O)Nc3ccc(Br)cc3)CCCC2)cc1	2	-8	46.9	-58.2	-7	-1
CC1=Nc2ccc(Cl)cc2C(c2ccccc2)N1CCNC(=O)CN(C)C (centres undefined)	1	-44	28.2	48.6	1	-3
CCCCOc1ccc(C(=O)Nc2cc(C)on2)cc1	-19.9	40.5	-65	41.2	-11	17
C[C@H]1COc2c(N3CCN(C)CC3)c(F)cc3c(=O)c(C(=O)O)cn1c23	23	-39	-46.5	-40.4	-8	-4
CCc1ccc(S(=O)(=O)Nc2cc(CN3CCN(CCC(C)C)CC3)ccc2C)cc1	17	-36	-10	-67.9	2	-9
O=C(Nc1cccc(-c2ccc(NCCCN3CCCC3)nc2)c1)c1ccccc1	21	-18	57.4	-48.2	-2	-9
O=C(c1cc2ccccc2o1)N1CCN(Cc2ccc3c(c2)OCO3)CC1	-9	-20	-40.3	-105	-4	-1
Clc1ccc(CN2CCN(C3=NCCN3)CC2)cc1Cl	35	-25	-25.5	-119	2	-6
COc1ccc(-c2cnc3ccc(NCc4ccc(S(N)(=O)=O)cc4)nn23)cn1	78	26	106	99.7	-11	-1
Oc1ccccc1CN1CCC2(CCCN(Cc3ccccc3F)C2)C1 (centres undefined)	91	42.8	100	-23.9	1	-11

Single entries from the entries so far:
hepatic nuclei reduction [3, 4] [%], `C[C@H]1COc2c(N3CCN(C)CC3)c(F)cc3c(=O)c(C(=O)O)cn1c23` is entered as -8
schizont net growth area inhibition [2, 4], `CC1=Nc2ccc(Cl)cc2C(c2ccccc2)N1CCNC(=O)CN(C)C` (centres undefined) is entered as 28.2

2 compounds picked at random from the list so far:
Compound	hypnozoite quantity inhibition [1, 4]	hypnozoite quantity inhibition [1, 5]	schizont net growth area inhibition [2, 4]	schizont net growth area inhibition [2, 5]	hepatic nuclei reduction [3, 4] [%]	hepatic nuclei reduction [3, 5] [%]
CCc1ccc(S(=O)(=O)Nc2cc(CN3CCN(CCC(C)C)CC3)ccc2C)cc1	17	-36	-10	-67.9	2	-9
Oc1ccccc1CN1CCC2(CCCN(Cc3ccccc3F)C2)C1 (centres undefined)	91	42.8	100	-23.9	1	-11

(listing goes on)

Compound	hypnozoite quantity inhibition [1, 4]	hypnozoite quantity inhibition [1, 5]	schizont net growth area inhibition [2, 4]	schizont net growth area inhibition [2, 5]	hepatic nuclei reduction [3, 4] [%]	hepatic nuclei reduction [3, 5] [%]
Cc1cc(OCC(=O)NCc2ccccc2)c2cc(Br)ccc2n1	-11	-2	23.3	-52.6	3	-3
O=C(NC1CC1)c1ccc(CSCc2ccccc2Cl)o1	12	-27	0.6	7.8	-7	5
CN1c2ccccc2N(C)C1c1ccc2c(c1)OCO2	-5.8	54.2	-49.9	-7.4	2	9
OC[C@H]1O[C@@H](n2c3ccc(Cl)cc3c3c(-c4cc5ccccc5o4)ncnc32)C(O)[C@H]1O (some centres undefined)	18	-15	-53.1	-5.1	5	-3
CC1COC2(CCN(c3nc(=O)c4cc(C(F)(F)F)cc([N+](=O)[O-])c4s3)CC2)O1 (centres undefined)	-54	-44	14.4	-87.8	0	-1
Cc1cc(NC(=O)c2ccc(-c3ccccc3)cc2)no1	-4.4	26.5	20.8	-46	3	-8
COCCNCC(O)Cn1c2ccc(Cl)cc2c2cc(Cl)ccc21 (centres undefined)	-8	31.3	-35.8	37.8	-9	11
COc1ccc(C)c2sc(N(Cc3cccnc3)C(=O)c3ccc(C#N)cc3)nc12	-20.2	23.7	22.3	-14.2	3	-7
CS(=O)(=O)c1ccccc1C(=O)N(Cc1ccccc1)c1ccccc1	13	-18	-31.8	-64.9	-3	-11
CC(C)(C)c1cc(C(=O)Nc2cccnc2)cc(C(=O)Nc2cccnc2)c1	-27	-36	33.9	-97.5	-7	0
COc1ccc(Nc2nc(NN=Cc3ccc(O)cc3)nc(Nc3ccc([N+](=O)[O-])cc3)n2)cc1	-8.2	45.5	24.6	-37.6	6	-11
Cc1nc(Nc2ncc(N3CCN(C)C(C)C3)c(Nc3cc(C)n(C)n3)n2)cc(C2CC2)c1F (centres undefined)	53	34	91.4	87.8	-9	-6
COc1ccc(CNC(=O)c2cc3c(=O)n4ccccc4nc3n(CCc3ccccc3)c2=N)cc1	-17.7	26.7	-16.8	-2.5	-17	4
CCOc1ccccc1CN1CCc2nc3cc(C(C)(C)C)nn3c(O)c2C1	8.2	7.4	49.8	64.6	3	-10
CC(C)(C)n1nc(-c2ccccc2)c2c(N)ncnc21	73	-15	102	102	1	-6
CCN(CC)CCNc1ncnc2c1[nH]c1ccc(Cl)cc12	-3.5	42.7	-44.7	4.8	2	0
CN(C)CCNC(=O)N1CCCN(c2ncnc3cc(-c4ccccc4)sc23)CC1	-2	-5	0.5	-44.4	-8	-2
CC(C)(C)OC(=O)N1CCN(c2cc(-c3ccc(Oc4ccccc4)cc3)n[nH]2)CC1	-3	-20	13.9	-53.1	-3	-10
COc1cccc(NC(=O)[C@H](C(C)C)n2c(=O)[nH]c3ccccc3c2=O)c1	44.8	67.9	103	36.1	10	-2
